Results from the supplement of paper PMC12819154, “High-throughput peptide-centric local stability assay extends protein–ligand identification to membrane proteins, tissues and bacteria” (Nature Structural & Molecular Biology, 2025).
Some of the results follow. Most values lie at the level of the controls, where differences are scatter.

Amino acid sequences for entries named in this document (tags omitted). A change or cut given only in a name is not applied to a line headed by its entry.
UniProt Q8NE35: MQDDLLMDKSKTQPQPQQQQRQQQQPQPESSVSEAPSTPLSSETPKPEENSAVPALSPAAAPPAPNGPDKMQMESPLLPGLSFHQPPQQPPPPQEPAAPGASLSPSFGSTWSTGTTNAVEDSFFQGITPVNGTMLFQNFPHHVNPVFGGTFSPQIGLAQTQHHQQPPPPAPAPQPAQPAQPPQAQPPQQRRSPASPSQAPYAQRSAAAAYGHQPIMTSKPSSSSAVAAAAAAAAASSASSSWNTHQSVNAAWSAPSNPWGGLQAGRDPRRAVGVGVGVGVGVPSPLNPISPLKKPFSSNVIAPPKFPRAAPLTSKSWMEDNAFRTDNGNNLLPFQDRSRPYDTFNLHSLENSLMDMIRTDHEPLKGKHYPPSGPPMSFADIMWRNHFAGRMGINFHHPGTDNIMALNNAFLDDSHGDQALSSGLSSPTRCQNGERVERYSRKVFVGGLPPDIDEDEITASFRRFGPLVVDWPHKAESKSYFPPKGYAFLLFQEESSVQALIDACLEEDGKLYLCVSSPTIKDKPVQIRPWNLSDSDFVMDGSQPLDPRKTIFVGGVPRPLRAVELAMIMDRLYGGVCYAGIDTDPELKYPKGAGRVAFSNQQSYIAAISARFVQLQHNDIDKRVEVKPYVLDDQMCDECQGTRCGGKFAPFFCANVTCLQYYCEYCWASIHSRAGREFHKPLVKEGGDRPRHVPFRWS
UniProt Q8NB50: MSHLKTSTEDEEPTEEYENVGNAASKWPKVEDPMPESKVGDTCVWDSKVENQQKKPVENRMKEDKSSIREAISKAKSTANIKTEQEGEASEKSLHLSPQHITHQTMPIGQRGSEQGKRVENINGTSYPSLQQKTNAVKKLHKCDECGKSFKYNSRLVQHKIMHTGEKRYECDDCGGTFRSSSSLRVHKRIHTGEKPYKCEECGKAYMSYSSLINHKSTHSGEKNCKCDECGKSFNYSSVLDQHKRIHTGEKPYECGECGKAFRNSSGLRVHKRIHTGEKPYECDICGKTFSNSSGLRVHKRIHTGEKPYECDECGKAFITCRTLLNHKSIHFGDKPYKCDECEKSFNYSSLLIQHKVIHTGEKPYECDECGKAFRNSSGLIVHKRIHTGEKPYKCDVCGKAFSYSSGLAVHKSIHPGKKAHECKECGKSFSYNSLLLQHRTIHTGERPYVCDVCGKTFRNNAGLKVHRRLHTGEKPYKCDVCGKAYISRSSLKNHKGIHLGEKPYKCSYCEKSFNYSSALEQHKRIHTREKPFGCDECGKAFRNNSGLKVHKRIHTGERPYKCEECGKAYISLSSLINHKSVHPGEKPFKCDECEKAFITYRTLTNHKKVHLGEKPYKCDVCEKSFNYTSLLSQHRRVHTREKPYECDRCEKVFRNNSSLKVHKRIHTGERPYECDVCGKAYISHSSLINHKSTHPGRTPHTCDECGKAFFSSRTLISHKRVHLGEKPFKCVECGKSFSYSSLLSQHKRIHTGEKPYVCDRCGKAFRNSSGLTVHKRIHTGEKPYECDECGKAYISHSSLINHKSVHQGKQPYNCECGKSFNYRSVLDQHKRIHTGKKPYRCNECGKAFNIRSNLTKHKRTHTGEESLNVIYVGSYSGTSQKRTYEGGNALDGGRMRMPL
UniProt Q8N3Z3: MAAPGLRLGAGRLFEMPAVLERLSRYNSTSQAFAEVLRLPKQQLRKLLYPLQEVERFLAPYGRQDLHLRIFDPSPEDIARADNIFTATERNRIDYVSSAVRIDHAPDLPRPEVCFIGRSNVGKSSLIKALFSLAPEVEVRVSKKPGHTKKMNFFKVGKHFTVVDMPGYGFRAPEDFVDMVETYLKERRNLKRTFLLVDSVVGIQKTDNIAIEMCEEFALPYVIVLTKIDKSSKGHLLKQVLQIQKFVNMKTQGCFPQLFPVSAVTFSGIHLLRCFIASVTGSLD
UniProt Q8N511: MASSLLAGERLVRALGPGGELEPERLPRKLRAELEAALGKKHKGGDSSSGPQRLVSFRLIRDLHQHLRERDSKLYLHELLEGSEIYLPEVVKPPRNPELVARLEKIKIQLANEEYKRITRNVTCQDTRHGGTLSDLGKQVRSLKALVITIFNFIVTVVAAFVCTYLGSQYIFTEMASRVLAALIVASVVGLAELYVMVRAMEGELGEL
UniProt Q8NBE8: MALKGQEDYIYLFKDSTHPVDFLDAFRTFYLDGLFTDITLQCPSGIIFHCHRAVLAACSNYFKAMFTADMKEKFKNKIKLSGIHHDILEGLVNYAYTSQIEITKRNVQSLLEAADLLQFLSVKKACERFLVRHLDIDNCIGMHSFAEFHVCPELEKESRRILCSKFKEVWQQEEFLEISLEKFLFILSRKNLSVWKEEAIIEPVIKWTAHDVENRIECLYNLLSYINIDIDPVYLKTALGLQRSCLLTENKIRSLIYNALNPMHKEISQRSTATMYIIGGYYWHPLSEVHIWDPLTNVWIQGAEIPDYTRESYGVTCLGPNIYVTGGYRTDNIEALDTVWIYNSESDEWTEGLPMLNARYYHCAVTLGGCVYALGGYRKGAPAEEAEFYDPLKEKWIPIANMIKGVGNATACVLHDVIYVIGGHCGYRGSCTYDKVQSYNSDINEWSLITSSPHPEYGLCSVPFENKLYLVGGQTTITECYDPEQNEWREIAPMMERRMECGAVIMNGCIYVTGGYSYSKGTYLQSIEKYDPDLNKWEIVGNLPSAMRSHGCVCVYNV
UniProt Q8NBA8: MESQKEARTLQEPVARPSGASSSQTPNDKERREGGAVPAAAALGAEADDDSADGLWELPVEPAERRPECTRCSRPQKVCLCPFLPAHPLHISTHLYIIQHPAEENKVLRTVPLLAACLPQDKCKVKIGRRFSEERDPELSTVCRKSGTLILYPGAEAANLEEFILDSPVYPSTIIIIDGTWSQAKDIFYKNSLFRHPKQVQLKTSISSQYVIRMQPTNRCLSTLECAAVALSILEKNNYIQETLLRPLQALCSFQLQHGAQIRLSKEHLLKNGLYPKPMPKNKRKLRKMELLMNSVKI
UniProt Q8NG48: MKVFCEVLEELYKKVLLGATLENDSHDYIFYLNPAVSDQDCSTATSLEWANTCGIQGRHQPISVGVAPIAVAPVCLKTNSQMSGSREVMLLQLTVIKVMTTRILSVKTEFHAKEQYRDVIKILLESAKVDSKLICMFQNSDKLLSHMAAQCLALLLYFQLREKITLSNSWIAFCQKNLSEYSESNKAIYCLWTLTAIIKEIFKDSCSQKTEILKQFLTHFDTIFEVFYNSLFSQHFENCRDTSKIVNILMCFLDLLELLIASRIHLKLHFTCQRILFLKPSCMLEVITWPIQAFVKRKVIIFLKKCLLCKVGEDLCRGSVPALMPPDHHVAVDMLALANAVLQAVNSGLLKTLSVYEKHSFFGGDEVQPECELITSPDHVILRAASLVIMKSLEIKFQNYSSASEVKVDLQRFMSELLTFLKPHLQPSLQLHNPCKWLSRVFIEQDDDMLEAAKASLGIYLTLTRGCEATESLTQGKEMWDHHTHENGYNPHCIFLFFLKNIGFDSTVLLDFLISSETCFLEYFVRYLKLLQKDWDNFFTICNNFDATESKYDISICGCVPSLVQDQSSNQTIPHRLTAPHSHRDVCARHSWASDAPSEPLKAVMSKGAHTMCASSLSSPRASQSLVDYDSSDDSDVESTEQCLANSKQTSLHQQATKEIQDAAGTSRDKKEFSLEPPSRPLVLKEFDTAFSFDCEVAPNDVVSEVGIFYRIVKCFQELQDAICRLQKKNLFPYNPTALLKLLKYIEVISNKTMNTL
UniProt Q8NE65: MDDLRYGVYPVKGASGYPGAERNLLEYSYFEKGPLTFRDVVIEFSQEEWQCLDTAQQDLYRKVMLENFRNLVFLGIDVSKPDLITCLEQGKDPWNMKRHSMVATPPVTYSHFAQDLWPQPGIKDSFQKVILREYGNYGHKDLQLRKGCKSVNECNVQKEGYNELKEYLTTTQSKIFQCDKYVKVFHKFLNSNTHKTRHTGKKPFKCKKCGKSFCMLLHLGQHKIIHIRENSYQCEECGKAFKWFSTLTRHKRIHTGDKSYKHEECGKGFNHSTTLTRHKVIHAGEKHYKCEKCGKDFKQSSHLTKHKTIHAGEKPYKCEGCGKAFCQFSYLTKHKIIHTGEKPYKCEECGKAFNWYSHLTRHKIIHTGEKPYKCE
UniProt Q8NAV1: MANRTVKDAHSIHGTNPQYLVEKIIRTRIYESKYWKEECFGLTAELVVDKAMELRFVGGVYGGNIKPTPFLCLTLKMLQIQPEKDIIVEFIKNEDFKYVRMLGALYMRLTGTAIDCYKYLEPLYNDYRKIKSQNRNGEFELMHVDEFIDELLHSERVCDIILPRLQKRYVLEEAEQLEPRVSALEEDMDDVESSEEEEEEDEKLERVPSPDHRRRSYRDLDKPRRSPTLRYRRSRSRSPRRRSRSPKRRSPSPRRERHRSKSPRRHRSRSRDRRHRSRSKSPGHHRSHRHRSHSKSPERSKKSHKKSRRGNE
UniProt Q8N2Z9: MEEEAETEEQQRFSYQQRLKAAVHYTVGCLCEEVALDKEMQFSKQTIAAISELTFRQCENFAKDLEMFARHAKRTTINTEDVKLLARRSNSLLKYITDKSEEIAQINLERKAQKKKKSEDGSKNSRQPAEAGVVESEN
UniProt Q8N4J0: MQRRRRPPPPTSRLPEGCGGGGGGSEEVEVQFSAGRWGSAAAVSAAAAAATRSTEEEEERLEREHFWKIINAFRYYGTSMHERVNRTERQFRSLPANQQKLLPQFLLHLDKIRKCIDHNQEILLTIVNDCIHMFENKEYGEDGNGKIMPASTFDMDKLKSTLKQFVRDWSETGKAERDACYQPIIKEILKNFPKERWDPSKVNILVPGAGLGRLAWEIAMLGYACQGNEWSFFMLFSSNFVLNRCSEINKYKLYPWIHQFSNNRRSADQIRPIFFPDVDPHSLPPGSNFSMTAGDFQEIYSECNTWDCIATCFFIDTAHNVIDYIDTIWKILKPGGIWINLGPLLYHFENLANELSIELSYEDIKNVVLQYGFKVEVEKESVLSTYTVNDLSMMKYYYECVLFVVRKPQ
UniProt Q8NHY6: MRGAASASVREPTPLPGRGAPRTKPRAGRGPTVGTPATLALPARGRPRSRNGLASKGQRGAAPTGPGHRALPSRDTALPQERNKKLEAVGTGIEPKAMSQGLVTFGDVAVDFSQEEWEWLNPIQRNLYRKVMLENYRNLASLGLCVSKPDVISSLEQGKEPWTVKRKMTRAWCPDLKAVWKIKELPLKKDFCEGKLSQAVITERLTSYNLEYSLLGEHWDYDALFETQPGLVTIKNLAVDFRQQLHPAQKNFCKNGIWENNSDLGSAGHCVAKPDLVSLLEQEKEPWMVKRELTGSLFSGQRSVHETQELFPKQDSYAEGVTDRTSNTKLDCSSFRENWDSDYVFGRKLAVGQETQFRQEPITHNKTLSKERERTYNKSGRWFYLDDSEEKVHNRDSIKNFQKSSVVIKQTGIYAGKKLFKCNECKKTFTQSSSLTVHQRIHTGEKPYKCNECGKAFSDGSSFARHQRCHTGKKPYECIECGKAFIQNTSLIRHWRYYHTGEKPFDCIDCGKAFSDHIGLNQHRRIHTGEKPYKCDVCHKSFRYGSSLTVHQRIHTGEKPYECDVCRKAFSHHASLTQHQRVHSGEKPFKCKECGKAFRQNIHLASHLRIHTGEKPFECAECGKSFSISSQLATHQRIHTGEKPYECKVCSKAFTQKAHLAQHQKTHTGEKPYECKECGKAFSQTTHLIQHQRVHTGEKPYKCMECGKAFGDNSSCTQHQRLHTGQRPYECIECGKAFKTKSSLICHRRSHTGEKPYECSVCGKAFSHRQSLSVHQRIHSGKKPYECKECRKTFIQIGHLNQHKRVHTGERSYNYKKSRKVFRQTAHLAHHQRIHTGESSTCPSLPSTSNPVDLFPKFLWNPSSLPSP
UniProt Q8NHY2, whole entry: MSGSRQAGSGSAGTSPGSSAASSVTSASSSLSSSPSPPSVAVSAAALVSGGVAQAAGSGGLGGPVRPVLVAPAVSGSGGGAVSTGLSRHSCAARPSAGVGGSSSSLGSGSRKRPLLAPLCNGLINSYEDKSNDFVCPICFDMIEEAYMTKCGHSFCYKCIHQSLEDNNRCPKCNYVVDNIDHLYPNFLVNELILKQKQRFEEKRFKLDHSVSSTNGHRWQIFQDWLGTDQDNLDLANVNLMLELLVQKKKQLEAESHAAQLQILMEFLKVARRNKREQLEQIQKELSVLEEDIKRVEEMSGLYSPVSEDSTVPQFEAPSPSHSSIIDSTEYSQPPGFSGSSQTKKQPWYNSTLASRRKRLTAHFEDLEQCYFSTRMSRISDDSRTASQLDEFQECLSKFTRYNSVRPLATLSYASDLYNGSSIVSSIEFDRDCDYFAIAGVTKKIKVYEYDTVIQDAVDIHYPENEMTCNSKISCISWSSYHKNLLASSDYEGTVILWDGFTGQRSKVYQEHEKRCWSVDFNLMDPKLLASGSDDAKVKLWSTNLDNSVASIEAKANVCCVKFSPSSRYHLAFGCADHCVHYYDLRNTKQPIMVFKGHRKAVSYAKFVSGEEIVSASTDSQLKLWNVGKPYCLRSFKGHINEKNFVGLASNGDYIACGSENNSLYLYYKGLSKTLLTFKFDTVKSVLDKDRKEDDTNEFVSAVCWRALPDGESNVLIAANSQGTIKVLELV

Compound: Cc1nc(Nc2ncc(C(=O)Nc3c(C)cccc3Cl)s2)cc(N2CCN(CCO)CC2)n1 [dasatinib]
Assay: log2 fold change of tryptic peptide abundance, ligand vs vehicle (limited proteolysis) (log2 ratio); higher = more trypsin-susceptible (destabilized)
Conditions: ligand concentration: 5 uM; sample: K562 cleared lysate

Target	log2 fold change
TNIP2 (peptide sequence: EMQQLLSQPQHER, peptide start residue: 107) (UniProt Q8NFZ5)	-0.165
MINDY2 (peptide sequence: DSGLESPAAAEAPLRGQYK, peptide start residue: 89) (UniProt Q8NBR6)	0.0248
TMEM102 (peptide sequence: AAVESPVPKPSEAR, peptide start residue: 242) (UniProt Q8N9M5)	0.0295
CPEB3 (peptide sequence: TQPQPQQQQR, peptide start residue: 12) (UniProt Q8NE35)	-0.349
UniProt Q8NDB6 (peptide sequence: HRDHMAPYAVGR, peptide start residue: 98)	-0.52
ZFP62 (peptide sequence: SFSYNSLLLQHR, peptide start residue: 429) (UniProt Q8NB50)	0.319
SHCBP1 (peptide sequence: LRLHYDILEDR, peptide start residue: 228) (UniProt Q8NEM2)	-0.521
KMT2C (peptide sequence: KDGASPFQR, peptide start residue: 42) (UniProt Q8NEZ4)	-0.309
GTPBP8 (peptide sequence: IFDPSPEDIAR, peptide start residue: 70) (UniProt Q8N3Z3)	0.621
NFATC2IP (peptide sequence: EKHQTLEVSLSR, peptide start residue: 356) (UniProt Q8NCF5)	0.323
UniProt Q8N184 (peptide sequence: SYECPHCGK, peptide start residue: 476)	-0.03
CTCFL (peptide sequence: YQCPHCATIIAR, peptide start residue: 428) (UniProt Q8NI51)	-0.134
UniProt Q8N357 (peptide sequence: GRPLAEESEQER, peptide start residue: 347)	0.0372
ABCF1 (peptide sequence: KLSVPTSDEEDEVPAPKPR, peptide start residue: 103) (UniProt Q8NE71)	-0.547
MCPH1 (peptide sequence: SDVCISSLVLK, peptide start residue: 260) (UniProt Q8NEM0)	0.486
PTGR2 (peptide sequence: VVLNSRPGK, peptide start residue: 6) (UniProt Q8N8N7)	-0.594
CCDC71L (peptide sequence: DVYGYSSCR, peptide start residue: 97) (UniProt Q8N9Z2)	-0.368
TMEM199 (peptide sequence: IQLANEEYKR, peptide start residue: 108) (UniProt Q8N511)	0.284
UniProt Q8NBE8 (peptide sequence: SLIYNALNPMHK, peptide start residue: 254)	0.177

Target	log2 fold change
DTWD2 (peptide sequence: FSEERDPELSTVCRK, peptide start residue: 131) (UniProt Q8NBA8)	-0.539
LINS1 (peptide sequence: EIQDAAGTSR, peptide start residue: 659) (UniProt Q8NG48)	-0.448
UniProt Q8NE65 (peptide sequence: GASGYPGAER, peptide start residue: 13)	-0.133
PRPF38A (peptide sequence: DAHSIHGTNPQYLVEK, peptide start residue: 8) (UniProt Q8NAV1)	-0.25
RNF214 (peptide sequence: EVWEMELDR, peptide start residue: 321) (UniProt Q8ND24)	0.198
DYNC2H1 (peptide sequence: KAGEQSVLLK, peptide start residue: 2917) (UniProt Q8NCM8)	-0.654
UniProt Q8NHQ1 (peptide sequence: DLETRPTQHELR, peptide start residue: 286)	-0.00851
UniProt Q8N2Z9 (peptide sequence: TTINTEDVK, peptide start residue: 75)	-0.384
UniProt Q8N4J0 (peptide sequence: STEEEEERLER, peptide start residue: 53)	-0.11
NEDD1 (peptide sequence: DLTAESKK, peptide start residue: 478) (UniProt Q8NHV4)	-0.421
UniProt Q8NHY6 (peptide sequence: VMLENYR, peptide start residue: 63)	0.0595
TSPYL6 (peptide sequence: FGQIHEYYLEQR, peptide start residue: 230) (UniProt Q8N831)	0.127
CRACR2B (peptide sequence: TQLEGAQEQIR, peptide start residue: 293) (UniProt Q8N4Y2)	0.256
PHETA1 (peptide sequence: ELEQQLAAVR, peptide start residue: 122) (UniProt Q8N4B1)	0.232
OTUD6B (peptide sequence: KQLTEDVAKLEK, peptide start residue: 46) (UniProt Q8N6M0)	0.294
LEMD2 (peptide sequence: LREDAPLR, peptide start residue: 68) (UniProt Q8NC56)	-0.602
UniProt Q8NHY2 (peptide sequence: ELSVLEEDIK, peptide start residue: 285)	0.398
TMEM87A (peptide sequence: MITHFER, peptide start residue: 545) (UniProt Q8NBN3)	-0.0479

A second format for some results above:
Target | log2 fold change
DYNC2H1 (peptide sequence: KAGEQSVLLK, peptide start residue: 2917) (UniProt Q8NCM8) | -0.654
UniProt Q8NHQ1 (peptide sequence: DLETRPTQHELR, peptide start residue: 286) | -0.00851
UniProt Q8N2Z9 (peptide sequence: TTINTEDVK, peptide start residue: 75) | -0.384
UniProt Q8N4J0 (peptide sequence: STEEEEERLER, peptide start residue: 53) | -0.11
NEDD1 (peptide sequence: DLTAESKK, peptide start residue: 478) (UniProt Q8NHV4) | -0.421
UniProt Q8NHY6 (peptide sequence: VMLENYR, peptide start residue: 63) | 0.0595
TSPYL6 (peptide sequence: FGQIHEYYLEQR, peptide start residue: 230) (UniProt Q8N831) | 0.127
CRACR2B (peptide sequence: TQLEGAQEQIR, peptide start residue: 293) (UniProt Q8N4Y2) | 0.256
PHETA1 (peptide sequence: ELEQQLAAVR, peptide start residue: 122) (UniProt Q8N4B1) | 0.232
OTUD6B (peptide sequence: KQLTEDVAKLEK, peptide start residue: 46) (UniProt Q8N6M0) | 0.294
LEMD2 (peptide sequence: LREDAPLR, peptide start residue: 68) (UniProt Q8NC56) | -0.602
